Source: patent US20110190142A1, “DETERMINATION OF RENIN-PRORENIN RECEPTOR ACTIVITY” (Charite- Universitatsmedizin Berlin, priority 2006, published 2011)
For some assays here: At least one result comes from cells or an extract, where the contact may be indirect. For some assays here: A negative result means that nothing was seen under these conditions. Protein sequences can lack the tags named with them.

What was measured:
[1] = target: T1, PLZF (promyelocytic zinc finger protein, ZBTB16) (Homo sapiens) (UniProt Q05516); assay: EMSA; settings: protein in an extract
T1 sequence (looked up, limits assumed): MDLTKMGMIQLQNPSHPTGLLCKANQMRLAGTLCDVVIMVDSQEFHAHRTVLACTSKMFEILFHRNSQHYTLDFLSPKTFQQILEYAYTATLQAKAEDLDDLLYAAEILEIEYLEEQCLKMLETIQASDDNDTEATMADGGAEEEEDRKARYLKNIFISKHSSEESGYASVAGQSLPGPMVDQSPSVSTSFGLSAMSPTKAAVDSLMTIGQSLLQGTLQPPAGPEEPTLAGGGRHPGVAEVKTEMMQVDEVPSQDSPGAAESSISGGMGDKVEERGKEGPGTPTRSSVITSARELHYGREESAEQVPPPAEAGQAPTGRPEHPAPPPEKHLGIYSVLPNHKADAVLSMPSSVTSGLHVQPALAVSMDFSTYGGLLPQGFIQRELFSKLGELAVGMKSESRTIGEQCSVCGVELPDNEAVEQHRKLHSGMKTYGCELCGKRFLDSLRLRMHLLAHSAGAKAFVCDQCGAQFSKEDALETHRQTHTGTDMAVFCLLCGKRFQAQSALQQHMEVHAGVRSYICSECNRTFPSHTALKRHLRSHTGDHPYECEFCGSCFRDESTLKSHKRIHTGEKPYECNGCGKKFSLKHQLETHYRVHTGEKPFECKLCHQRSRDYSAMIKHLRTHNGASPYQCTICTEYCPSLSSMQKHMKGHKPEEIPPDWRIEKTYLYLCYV

[2] = target: T2, PLZF-myc (promyelocytic zinc finger protein, ZBTB16) (Homo sapiens) (UniProt Q05516); assay: activity in cells; settings: luciferase, protein details: C-terminal myc, pCEP4 (GenBank GI:31543978), only the site is given
T2 sequence (looked up, limits assumed): T1 sequence (looked up, limits assumed)

Does “TTACATGTACTAGTGTTGTGG (double strand) [PI3K-p85alpha promoter PLZF element]” bind ([1]; positive control, pattern identical to RER native oligo)?
Result: binds

Which results are given for “CTTTACATCTGTTTTCACTGG (double strand) [RER promoter PLZF element, mutated]”?
binding result ([1]; mutated PLZF cis-element, variant of RER promoter PLZF element, native): no binding; activity on this sequence ([2]; site mutation in the 1100 bp promoter derepressed activity and abolished renin effect, variant of RER promoter PLZF element, native): > 150%

Which results are given for “CTTAACTACAGTTTTCACTGG (double strand) [RER promoter PLZF element, native]”?
binding result ([1]; super-shift with anti-PLZF antibody): binds; activity on this sequence ([2]; RER promoter repressed about 30% by renin with PLZF cotransfection, RER-dependent): active
